Measurements published in the supplement of paper PMC7661543.
Differences between knockout arms are mostly noise.

System: HCC-38
Assay: relative cell number vs DMSO control (72 h) (% of DMSO); higher = less growth inhibition (more cells)
Method: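 QMAP-Seq: a pool of 5 breast cancer cell lines (ZR-75-1, SKBR3, HCC-38, MDA-MB-231, BT-20), each carrying 12 doxycycline-inducible Cas9 sgRNA perturbations (11 knockouts plus non-targeting sgNT), was treated with compounds for 72 h at four 10-fold doses (10 nM-10 uM or 1 nM-1 uM range). Barcodes were amplified and sequenced, and cell number was interpolated from 293T spike-in standard curves. The result is expressed as % of the median of DMSO wells. Two biological replicates.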

c1ccc2c(Oc3nc(Nc4ccc(N5CCOCC5)cc4)c4ncn(C5CCCCC5)c4n3)cccc2c1 [Purmorphamine]
Conditions	relative cell number
sgRNA knockout: sgATF3, 10 nM	101
sgRNA knockout: sgATF3, 100 nM	105.42
sgRNA knockout: sgATF3, 1000 nM	92.3
sgRNA knockout: sgATF3, 10000 nM	73.8
sgRNA knockout: sgATF4, 10 nM	95.2
sgRNA knockout: sgATF4, 100 nM	95.3
sgRNA knockout: sgATF4, 1000 nM	89.7
sgRNA knockout: sgATF4, 10000 nM	67.7
sgRNA knockout: sgATF6, 10 nM	91.8
sgRNA knockout: sgATF6, 100 nM	82.41
sgRNA knockout: sgATF6, 1000 nM	94.85
sgRNA knockout: sgATF6, 10000 nM	65.5
sgRNA knockout: sgATG7, 10 nM	87.8
sgRNA knockout: sgATG7, 100 nM	93.9
sgRNA knockout: sgATG7, 1000 nM	86.9
sgRNA knockout: sgATG7, 10000 nM	74.7
sgRNA knockout: sgERN1, 10 nM	97.6
sgRNA knockout: sgERN1, 100 nM	98.2
sgRNA knockout: sgERN1, 1000 nM	91
sgRNA knockout: sgERN1, 10000 nM	75.6
sgRNA knockout: sgHSF1, 10 nM	79.7
sgRNA knockout: sgHSF1, 100 nM	82.6
sgRNA knockout: sgHSF1, 1000 nM	86.4
sgRNA knockout: sgHSF1, 10000 nM	82.4
sgRNA knockout: sgHSF2, 10 nM	99.2
sgRNA knockout: sgHSF2, 100 nM	112
sgRNA knockout: sgHSF2, 1000 nM	88.2
sgRNA knockout: sgHSF2, 10000 nM	78.8
sgRNA knockout: sgKEAP1, 10 nM	97.6
sgRNA knockout: sgKEAP1, 100 nM	94.6
sgRNA knockout: sgKEAP1, 1000 nM	94.9
sgRNA knockout: sgKEAP1, 10000 nM	101
sgRNA knockout: sgNFE2L2, 10 nM	101
sgRNA knockout: sgNFE2L2, 100 nM	97.3
sgRNA knockout: sgNFE2L2, 1000 nM	83
sgRNA knockout: sgNFE2L2, 10000 nM	69
sgRNA knockout: sgSLC35F2, 10 nM	95.5
sgRNA knockout: sgSLC35F2, 100 nM	90.6
sgRNA knockout: sgSLC35F2, 1000 nM	91.4
sgRNA knockout: sgSLC35F2, 10000 nM	71.2
sgRNA knockout: sgXBP1, 10 nM	102
sgRNA knockout: sgXBP1, 100 nM	98.7
sgRNA knockout: sgXBP1, 1000 nM	89.6
sgRNA knockout: sgXBP1, 10000 nM	64.7

CC(C)(C#N)c1cc(Cn2cncn2)cc(C(C)(C)C#N)c1 [Anastrozole]
Conditions	relative cell number
sgRNA knockout: sgATF3, 1 nM	107
sgRNA knockout: sgATF3, 10 nM	110
sgRNA knockout: sgATF3, 100 nM	99.9
sgRNA knockout: sgATF3, 1000 nM	105.95
sgRNA knockout: sgATF4, 1 nM	102
sgRNA knockout: sgATF4, 10 nM	114
sgRNA knockout: sgATF4, 100 nM	102
sgRNA knockout: sgATF4, 1000 nM	111.9
sgRNA knockout: sgATF6, 1 nM	109
sgRNA knockout: sgATF6, 10 nM	127
sgRNA knockout: sgATF6, 100 nM	118
sgRNA knockout: sgATF6, 1000 nM	109
sgRNA knockout: sgATG7, 1 nM	107
sgRNA knockout: sgATG7, 10 nM	108
sgRNA knockout: sgATG7, 100 nM	102.6
sgRNA knockout: sgATG7, 1000 nM	113
sgRNA knockout: sgERN1, 1 nM	103
sgRNA knockout: sgERN1, 10 nM	110
sgRNA knockout: sgERN1, 100 nM	104
sgRNA knockout: sgERN1, 1000 nM	104
sgRNA knockout: sgHSF1, 1 nM	106
sgRNA knockout: sgHSF1, 10 nM	141
sgRNA knockout: sgHSF1, 100 nM	114
sgRNA knockout: sgHSF1, 1000 nM	106.3
sgRNA knockout: sgHSF2, 1 nM	116
sgRNA knockout: sgHSF2, 10 nM	129
sgRNA knockout: sgHSF2, 100 nM	110
sgRNA knockout: sgHSF2, 1000 nM	104
sgRNA knockout: sgKEAP1, 1 nM	117
sgRNA knockout: sgKEAP1, 10 nM	127
sgRNA knockout: sgKEAP1, 100 nM	114
sgRNA knockout: sgKEAP1, 1000 nM	99.3
sgRNA knockout: sgNFE2L2, 1 nM	97.4
sgRNA knockout: sgNFE2L2, 10 nM	112
sgRNA knockout: sgNFE2L2, 100 nM	100
sgRNA knockout: sgNFE2L2, 1000 nM	115
sgRNA knockout: sgSLC35F2, 1 nM	102
sgRNA knockout: sgSLC35F2, 10 nM	111
sgRNA knockout: sgSLC35F2, 100 nM	98.6
sgRNA knockout: sgSLC35F2, 1000 nM	98.3
sgRNA knockout: sgXBP1, 1 nM	101
sgRNA knockout: sgXBP1, 10 nM	118
sgRNA knockout: sgXBP1, 100 nM	90.8
sgRNA knockout: sgXBP1, 1000 nM	113
